Reference: PubChem BioAssay AID1053208 (Peter MacCallum Cancer Centre, 2014)
Here is one part, drawn at random, of about 17,000 reagents. 788 of them (4.7%) count as active. 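Calls rest on z-score classes alone; an extra cut-off of viability at most 70% of control was not applied to them.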

Purpose: 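Genes whose silencing cuts survival of bone tumour cells only with doxorubicin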 (primary screen)
Cell system: mouse osteosarcoma cells, early-passage culture from an engineered mouse model of fibroblastic bone tumour
Reagents: siRNA pool against mouse genes, 40 nM
Duration: about 120 h (48 h before drug, then 72 h with drug)
Conditions: doxorubicin 100 nM for 72 h, roughly 30-40% inhibitory dose
Measurement: 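Viability read as ATP luminescence after 72 h of 100 nM doxorubicin or none, duplicate wells averaged, scaled to non-targeting siRNA, then expressed as robust z-scores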
Direction: viability z-score with doxorubicin and doxorubicin viability vs non-targeting: higher = more viable cells under doxorubicin; viability z-score without drug: higher = more viable cells with knock-down alone; z-score of drug to no-drug ratio: higher = less drug sensitisation by knock-down
Active means: 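a pool counts as active when its viability z-score with doxorubicin is -2 or below and its z-score without drug lies between -2 and 2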

Gene | PubChem SID | combined z-score class | viability z-score with doxorubicin | viability z-score without drug | z-score of drug to no-drug ratio | doxorubicin viability vs non-targeting | call
Psph | SID152309643 | no change with or without drug | 1.57 | 0.34 | 1.46 | 1.08 | inactive
Or9a2 | SID152276734 | no change with or without drug | -1.8 | -1.18 | -1.01 | 0.78 | inactive
Atf2 | SID152306215 | no change with or without drug | -1.57 | -1.18 | -0.79 | 0.8 | inactive
Gpatch11 | SID152318219 | no change with or without drug | 0.45 | -0.34 | 0.79 | 0.98 | inactive
Arpc5l | SID152333316 | no change with or without drug | -0.67 | -0.17 | -0.45 | 0.88 | inactive
Prkacb | SID152263977 | no change with or without drug | 0.79 | 0.34 | 0.67 | 1.01 | inactive
Clptm1l | SID152279830 | no change with or without drug | 0.45 | -0.34 | 0.79 | 0.98 | inactive
Dnajc8 | SID152305876 | no change with or without drug | 0.67 | 0.51 | 0.45 | 1 | inactive
Ppil4 | SID152263580 | no change with or without drug | -0.34 | -0.51 | 0.11 | 0.91 | inactive
Batf2 | SID152262019 | no change with or without drug | -1.35 | -0.51 | -1.01 | 0.82 | inactive
Ceacam14 | SID152298406 | no change with or without drug | -1.8 | -1.18 | -1.01 | 0.78 | inactive
Cd80 | SID152286238 | no change with or without drug | 0.67 | -0.17 | 0.9 | 1 | inactive
Papss2 | SID152324435 | no change with or without drug | 0.56 | -0.51 | 1.12 | 0.99 | inactive
Slfn8 | SID152319866 | no change with or without drug | -1.12 | -1.85 | 0.22 | 0.84 | inactive
Ube2h | SID152280425 | no change with or without drug | -1.8 | -1.18 | -1.01 | 0.78 | inactive
Adcyap1 | SID152343098 | no change with or without drug | 0 | 0.17 | 0 | 0.94 | inactive
Rell2 | SID152280587 | no change with or without drug | -0.34 | -0.51 | 0.11 | 0.91 | inactive
6430548M08Rik | SID152322680 | no change with or without drug | 1.24 | 1.52 | 0.34 | 1.05 | inactive
Stxbp6 | SID152282798 | no change with or without drug | -1.35 | -1.35 | -0.45 | 0.82 | inactive
Poldip3 | SID152286043 | no change with or without drug | -0.45 | -1.35 | 0.56 | 0.9 | inactive
Rpe | SID152314828 | high cell count with doxorubicin only | 2.02 | 0.17 | 2.14 | 1.12 | inactive
Sccpdh | SID152305732 | no change with or without drug | 0.22 | 0.34 | 0.11 | 0.96 | inactive
Acsl1 | SID152327718 | no change with or without drug | -0.9 | -1.18 | 0 | 0.86 | inactive
Or2n1 | SID152274350 | no change with or without drug | -0.11 | 0.84 | -0.56 | 0.93 | inactive
Fpr-rs7 | SID152283525 | no change with or without drug | -0.67 | 0.84 | -1.12 | 0.88 | inactive
Sirpa | SID152308430 | no change with or without drug | 0.22 | 0.34 | 0.11 | 0.96 | inactive
Acp3 | SID152316302 | no change with or without drug | 0 | -0.51 | 0.45 | 0.94 | inactive
Daglb | SID152269907 | no change with or without drug | 1.12 | 1.01 | 0.56 | 1.04 | inactive
Hoxb13 | SID152265284 | no change with or without drug | -0.22 | -1.01 | 0.56 | 0.92 | inactive
Pus1 | SID152311021 | no change with or without drug | -1.24 | 0.17 | -1.35 | 0.83 | inactive
Glt1d1 | SID152275117 | high cell count without drug only | 1.46 | 2.19 | 0.11 | 1.07 | inactive
Bcl7a | SID152289771 | no change with or without drug | 1.12 | 1.01 | 0.56 | 1.04 | inactive
Medag | SID152307680 | no change with or without drug | -1.24 | -0.34 | -1.01 | 0.83 | inactive
Kif15 | SID152283108 | no change with or without drug | 0.67 | 0.84 | 0.22 | 1 | inactive
Hnrnpu | SID152290894 | no change with or without drug | 0.34 | -0.51 | 0.79 | 0.97 | inactive
Nox3 | SID152263695 | no change with or without drug | -1.35 | 0 | -1.35 | 0.82 | inactive
Kdelr2 | SID152274086 | no change with or without drug | 0 | -0.51 | 0.45 | 0.94 | inactive
4933428P19Rik | SID152337198 | no change with or without drug | -0.11 | 0.67 | -0.45 | 0.93 | inactive
Ndufaf4 | SID152281463 | no change with or without drug | 0.67 | 0.17 | 0.67 | 1 | inactive
Siglece | SID152308111 | no change with or without drug | 1.24 | 0.67 | 0.9 | 1.05 | inactive
9530091C08Rik | SID152320362 | no change with or without drug | 0 | -1.18 | 1.01 | 0.94 | inactive
Hectd3 | SID152271178 | high cell count with doxorubicin only | 2.81 | 1.85 | 1.57 | 1.19 | inactive
Ehhadh | SID152317308 | no change with or without drug | 0.34 | 1.01 | -0.22 | 0.97 | inactive
Fbxo5 | SID152304273 | no change with or without drug | -0.34 | -0.34 | 0 | 0.91 | inactive
Abcb1b | SID152314994 | no change with or without drug | 0 | -0.84 | 0.67 | 0.94 | inactive
Hic2 | SID152314079 | no change with or without drug | 0.22 | 0.51 | 0 | 0.96 | inactive
Nr0b2 | SID152273982 | no change with or without drug | 0.22 | -0.17 | 0.45 | 0.96 | inactive
Nup54 | SID152295838 | low cell count with and without drug | -4.27 | -2.36 | -3.26 | 0.56 | inactive
Fzd8 | SID152321885 | no change with or without drug | -0.34 | -0.17 | -0.11 | 0.91 | inactive
Slc27a5 | SID152318104 | no change with or without drug | -1.12 | 1.18 | -1.8 | 0.84 | inactive
Kcna6 | SID152288238 | no change with or without drug | 0.45 | 0.67 | 0.11 | 0.98 | inactive
Spcs2 | SID152325434 | no change with or without drug | 0.45 | 0.84 | 0 | 0.98 | inactive
Hoxb2 | SID152335418 | no change with or without drug | -0.9 | -1.69 | 0.34 | 0.86 | inactive
D830016O14Rik | SID152264962 | no change with or without drug | 0.45 | 1.69 | -0.56 | 0.98 | inactive
Canx | SID152272854 | no change with or without drug | 0.9 | 1.18 | 0.22 | 1.02 | inactive
Abhd10 | SID152336263 | no change with or without drug | -1.46 | -0.17 | -1.35 | 0.81 | inactive
A430005L14Rik | SID152330258 | no change with or without drug | -0.22 | -0.67 | 0.34 | 0.92 | inactive
Or10g9b | SID152279489 | low cell count with doxorubicin only | -2.36 | -1.52 | -1.46 | 0.73 | active
Rnf34 | SID152293102 | no change with or without drug | -1.57 | -0.84 | -1.01 | 0.8 | inactive
Stk24 | SID152285421 | no change with or without drug | 0 | -1.01 | 0.9 | 0.94 | inactive
Garin5b | SID152324294 | no change with or without drug | -0.22 | -1.85 | 1.35 | 0.92 | inactive
Nfrkb | SID152279896 | no change with or without drug | -0.34 | -0.84 | 0.34 | 0.91 | inactive
Minar1 | SID152304250 | no change with or without drug | -0.79 | -0.51 | -0.34 | 0.87 | inactive
